Data on 54 sequences can be found in paper PMC7819943, “Rice protein-binding microarrays: a tool to detect cis-acting elements near promoter regions in rice”.

Chains of the proteins cited; added tags and fusions are not shown.
UniProt Q0JBA9, entry or part of it: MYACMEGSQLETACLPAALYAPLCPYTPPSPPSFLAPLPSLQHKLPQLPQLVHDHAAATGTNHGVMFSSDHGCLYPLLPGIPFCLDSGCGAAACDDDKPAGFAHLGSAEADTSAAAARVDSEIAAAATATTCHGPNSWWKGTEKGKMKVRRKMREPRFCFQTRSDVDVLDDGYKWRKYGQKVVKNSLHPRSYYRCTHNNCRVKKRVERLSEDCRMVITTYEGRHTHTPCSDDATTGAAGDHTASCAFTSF

The other results are listed elsewhere or left out.

The target in the assay is OsWRKY34 (Oryza sativa, UniProt Q0JBA9 1-250). Kind of assay: protein-binding microarray (RPBM); PBS, 2% BSA, 51.3 ng/ul salmon testes DNA, 50 uM zinc acetate, 200 nM TF, 25 C, 1 h; high values mean tight binding. To be noted: protein: recombinant; tags: N-terminal polyhistidine and DsRed monomer fusion (pET32a); label: CyDye5-dUTP incorporated in the synthesized complementary strand; 3' TTTTT single-stranded linker to array surface; dsDNA, one strand shown. Put shortly:
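For the binding signal, per-feature fluorescence intensity was read in arbitrary units on an Axon 4000B scanner. Before scanning, a 2% BSA-blocked custom Agilent array made double-stranded with Cy5-dUTP was washed after 1 h at 25 °C with 200 nM protein and 50 µM zinc acetate. The proteins were Ni–NTA-purified transcription factors with N-terminal polyhistidine and DsRed fusions, expressed in E. coli BL21-CodonPlus.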
“CCATCCTTATCTATATATGTATGCTATTGTTGCTGTTATGCGGAGTCACCTAGTGCAG”: the binding signal was 9070 fluorescence intensity (a.u.).

Turning to “GGGATGTCTTGGCTTTTTTTTTTTCTTCACCGAGCAATCGCGGAGTCACCTAGTGCAG”, the binding signal is 13400 fluorescence intensity (a.u.).

Take “GAGGTATATGTCCATTTTGTTTTTGTTAGAGTTTGTTTTTCGGAGTCACCTAGTGCAG”: the binding signal is 10700 fluorescence intensity (a.u.).

In the case of “GAGTGTGAGTGTGGTCTGATTTTTTCTTGCAGAATCATCACGGAGTCACCTAGTGCAG”, the binding signal was 8190 fluorescence intensity (a.u.).

Regarding “GGGAGGAGGGAGAGGAGGAGAGGAGGGAGGAGGGAGAGGACGGAGTCACCTAGTGCAG”, the binding signal is 9610 fluorescence intensity (a.u.).

As for “ATATAAGTGTAGTTCTGGGTTTCATATTTTTTTTCAAATACGGAGTCACCTAGTGCAG”, the binding signal was 8130 fluorescence intensity (a.u.).

Take “ACTACTACTACCCTTGCTCTGTCTGATCCAAGTCCAGGCACGGAGTCACCTAGTGCAG”: the binding signal is 8030 fluorescence intensity (a.u.).

Regarding “CGTCCGCCGCAGATCCGATCGGTAGCAATAGCACATATCACGGAGTCACCTAGTGCAG”, the binding signal is 8500 fluorescence intensity (a.u.).

On to “GGCCGTCAAATTAACCTCGATCGCCGCCAGCCAGCGACGTCGGAGTCACCTAGTGCAG”, for which the binding signal is 8180 fluorescence intensity (a.u.).

Take “GGGGTTGGGTTGAGATTCCCCAGGCGCCCGCGGCGGCCTCCGGAGTCACCTAGTGCAG”: the binding signal was 8370 fluorescence intensity (a.u.).

As for “AAATCACGTCATTGTATTGTGTTTTGAAGCTTGTTTGATCCGGAGTCACCTAGTGCAG”, the binding signal is 8480 fluorescence intensity (a.u.).

For the sequence “TTTCATTATGGCTTAACAAAGTATAATATTCCACCGCAAACGGAGTCACCTAGTGCAG”, the binding signal is 8192 fluorescence intensity (a.u.).

In the case of “TTTGGTTAATGTTTACTCCTAATTTCTTAATTTCTAGTTTCGGAGTCACCTAGTGCAG”, the binding signal is 8500 fluorescence intensity (a.u.).

“ATCTATCTCTATCCCTCTCTATATATTTTCTCCCTAGAACCGGAGTCACCTAGTGCAG”: the binding signal is 8350 fluorescence intensity (a.u.).

Take “AAACAATGACCTTACACTCTTCGTAACCAATTTATCAGCTCGGAGTCACCTAGTGCAG”: the binding signal is 8100 fluorescence intensity (a.u.).

Consider “GCGCGGCGGCGGAGGCGGGGACGGCAAGGACGGGGCGCCCCGGAGTCACCTAGTGCAG”, for which the binding signal is 9760 fluorescence intensity (a.u.).

“TATCGATTTCTCCTTCTTGCCATCCAATATGATTTTAGATCGGAGTCACCTAGTGCAG”: the binding signal was 10300 fluorescence intensity (a.u.).

Consider “AATCCCGAAGACTTGGATAGAGTGGTTTTGCGTTGGTTGTCGGAGTCACCTAGTGCAG”, for which the binding signal was 8540 fluorescence intensity (a.u.).

Regarding “ACACTTCCTTTTTTGTTTTTCTCTTTTCCTTTCACGTTGTCGGAGTCACCTAGTGCAG”, the binding signal is 8880 fluorescence intensity (a.u.).

As for “CAAGGCTCGTTCAAAGTGTTGTTAAGTTGTTAGTCAAGCACGGAGTCACCTAGTGCAG”, the binding signal is 8840 fluorescence intensity (a.u.).

Regarding “GATATGTTCATACCAGTACTTACCAATTTTAGCGATCTTGCGGAGTCACCTAGTGCAG”, the binding signal was 10300 fluorescence intensity (a.u.).

As to “GGCAGCTTATGGTACAGGGGTACATCATCACAGATTTCTTCGGAGTCACCTAGTGCAG”, the binding signal was 9770 fluorescence intensity (a.u.).

Consider “GTCCTTAAATATTTGACGTCGTTGACTTTTTTTAAAATATCGGAGTCACCTAGTGCAG”, for which the binding signal is 20900 fluorescence intensity (a.u.).

For “TTCCACCTCACCGTTGCTATATGTCTGTAGAGAAATGTATCGGAGTCACCTAGTGCAG”, the binding signal was 8260 fluorescence intensity (a.u.).

“AGTAATTTGACTTTTTCCTTAATCAAACTTCTTTAAGTTTCGGAGTCACCTAGTGCAG”: the binding signal was 10600 fluorescence intensity (a.u.).

On to “CCACCGCTGTCACTCACTCTGTTGTCGCCACCCAACGAGGCGGAGTCACCTAGTGCAG”, for which the binding signal was 8390 fluorescence intensity (a.u.).

As to “TAGAATCCACTCCCTACGACCATCGGTTTCTGACTTTCACCGGAGTCACCTAGTGCAG”, the binding signal is 9230 fluorescence intensity (a.u.).

Regarding “AGGGTTTACGGGTTTTTTTGGCGGCGGCGGCGGCGGTCTCCGGAGTCACCTAGTGCAG”, the binding signal is 10700 fluorescence intensity (a.u.).

As to “GTGGTGGTATAATTTTCTTTGTTTTCCTAATTACGACCTCCGGAGTCACCTAGTGCAG”, the binding signal was 8490 fluorescence intensity (a.u.).

Regarding “GCCCGAGCTTTTTTTCCACCCCTAGCGGCGATGCGCCAATCGGAGTCACCTAGTGCAG”, the binding signal was 8850 fluorescence intensity (a.u.).

Turning to “ACGCTACATTCAGTTTCCATTCTGAAATCTTTTTCGGGCCCGGAGTCACCTAGTGCAG”, the binding signal is 9940 fluorescence intensity (a.u.).

For the sequence “ATATCTCGATCTTACTATTCGTTTCACATTTTCCGATCCTCGGAGTCACCTAGTGCAG”, the binding signal was 10000 fluorescence intensity (a.u.).

As for “ATTGACTTTTTCTTACACTGTTTAACCATTCGTCTTATTCCGGAGTCACCTAGTGCAG”, the binding signal is 14000 fluorescence intensity (a.u.).

Take “GCCAGCATCATCACACAAGCACACTCGTCCGTTTTTCTAGCGGAGTCACCTAGTGCAG”: the binding signal is 10900 fluorescence intensity (a.u.).

Take “AGTCATTTGTGCCCGCACCTATCTAGTGTTCTGTAGTAGTCGGAGTCACCTAGTGCAG”: the binding signal is 9200 fluorescence intensity (a.u.).

As for “AACGGCTACACAACTCCACTCCAAACCTAACTCCTAGAGCCGGAGTCACCTAGTGCAG”, the binding signal is 9660 fluorescence intensity (a.u.).

In the case of “GCGGTTGTCATTTTCTCCAGCACTCGACTTCCCTTTCTCCCGGAGTCACCTAGTGCAG”, the binding signal was 8630 fluorescence intensity (a.u.).

Consider “GGTAAAACTATACTTTCATAGTTGTTTCTTTCTCCAATTCCGGAGTCACCTAGTGCAG”, for which the binding signal is 8120 fluorescence intensity (a.u.).

For the sequence “ACTAATTACACGTCAGCTTGCTTAGCCGCGTCGCGCTGCTCGGAGTCACCTAGTGCAG”, the binding signal is 9340 fluorescence intensity (a.u.).

Regarding “CTGGGCCCTCGTGCTGCTCTTCTCATGTCACCACCGCCGGCGGAGTCACCTAGTGCAG”, the binding signal is 9810 fluorescence intensity (a.u.).

Take “AAATTTTCCTTTTGTCTCTCTATACATAAATATCTAATTTCGGAGTCACCTAGTGCAG”: the binding signal is 10200 fluorescence intensity (a.u.).

For the sequence “TAGTATTTAAAAGTGGTGCTCATAGGGGTAGGGTTTGCTGCGGAGTCACCTAGTGCAG”, the binding signal was 8520 fluorescence intensity (a.u.).

With “ACTCTGTCTCACTCTTCTTCTCTCACTGGTCGGCGGCGGCCGGAGTCACCTAGTGCAG”, the binding signal is 8430 fluorescence intensity (a.u.).

Take “TATCATATGTCTAAAACATGTTCGATGCTCGTTTGTCACGCGGAGTCACCTAGTGCAG”: the binding signal is 8140 fluorescence intensity (a.u.).

Regarding “ATCGTACCAAACGTTTCCTCACATGCATACTGAACTTTGACGGAGTCACCTAGTGCAG”, the binding signal was 8880 fluorescence intensity (a.u.).

With “TTTGCCTCAATGTCTGTTTTTGACTTTCTTACCATGCACTCGGAGTCACCTAGTGCAG”, the binding signal was 12300 fluorescence intensity (a.u.).

As to “GTTTGGACCAAAATGCAATTGTACCCTTTTCTGCCTCTCACGGAGTCACCTAGTGCAG”, the binding signal is 8340 fluorescence intensity (a.u.).

“CCGTTTCGAGTTAACCGGCGCGCGTTTTCACCGCGAACTACGGAGTCACCTAGTGCAG”: the binding signal is 9370 fluorescence intensity (a.u.).

Turning to “CGCCGCCAGCCCTCGTCGTCCGAGCGACCGCCACCGCCACCGGAGTCACCTAGTGCAG”, the binding signal is 9280 fluorescence intensity (a.u.).

With “CCCTCTCCCTGTCGTCCGCCATCCTTCCAGGGCGTCGCGACGGAGTCACCTAGTGCAG”, the binding signal was 8880 fluorescence intensity (a.u.).

As for “TTGGCGTACCATGTAACTGATGCTATTCTGTTCTTCCTTCCGGAGTCACCTAGTGCAG”, the binding signal was 8070 fluorescence intensity (a.u.).

“TGGTTACCTGGAACGCGCGGAGCCAGTCGGGGTCTTCTTCCGGAGTCACCTAGTGCAG”: the binding signal is 8090 fluorescence intensity (a.u.).

Turning to “CTAGCTATTGGCCAATCCCACTGTCGATCCTTTTGACAAACGGAGTCACCTAGTGCAG”, the binding signal was 9690 fluorescence intensity (a.u.).

Regarding “ACTCGTTGTTTTTCCTTCTCACTTTTCAACTGCACGAACGCGGAGTCACCTAGTGCAG”, the binding signal was 10100 fluorescence intensity (a.u.).
